Test results published in article PMC9616849.
Results are given in words; binding and its absence hold for the method and conditions named. In cells and extracts the contact can be indirect. Some entries that bind do so weakly or less than the wild type.

Sequences of proteins named here, by UniProt entry; tags and fusion partners are left off.
UniProt P70658: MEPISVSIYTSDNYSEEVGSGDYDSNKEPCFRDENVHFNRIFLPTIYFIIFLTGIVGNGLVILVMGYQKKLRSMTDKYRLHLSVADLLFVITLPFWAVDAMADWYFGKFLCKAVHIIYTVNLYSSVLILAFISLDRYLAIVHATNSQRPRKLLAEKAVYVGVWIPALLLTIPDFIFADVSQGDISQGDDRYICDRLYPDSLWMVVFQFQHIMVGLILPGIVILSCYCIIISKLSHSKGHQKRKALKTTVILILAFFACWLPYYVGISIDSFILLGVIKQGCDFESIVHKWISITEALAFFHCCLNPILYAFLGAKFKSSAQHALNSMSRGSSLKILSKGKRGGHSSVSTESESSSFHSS

Molecular target: T1, Endogenous TBK1 (TANK-binding kinase 1) (mouse (endogenous in bEnd.3)) (UniProt Q9WUN2)
T1 sequence: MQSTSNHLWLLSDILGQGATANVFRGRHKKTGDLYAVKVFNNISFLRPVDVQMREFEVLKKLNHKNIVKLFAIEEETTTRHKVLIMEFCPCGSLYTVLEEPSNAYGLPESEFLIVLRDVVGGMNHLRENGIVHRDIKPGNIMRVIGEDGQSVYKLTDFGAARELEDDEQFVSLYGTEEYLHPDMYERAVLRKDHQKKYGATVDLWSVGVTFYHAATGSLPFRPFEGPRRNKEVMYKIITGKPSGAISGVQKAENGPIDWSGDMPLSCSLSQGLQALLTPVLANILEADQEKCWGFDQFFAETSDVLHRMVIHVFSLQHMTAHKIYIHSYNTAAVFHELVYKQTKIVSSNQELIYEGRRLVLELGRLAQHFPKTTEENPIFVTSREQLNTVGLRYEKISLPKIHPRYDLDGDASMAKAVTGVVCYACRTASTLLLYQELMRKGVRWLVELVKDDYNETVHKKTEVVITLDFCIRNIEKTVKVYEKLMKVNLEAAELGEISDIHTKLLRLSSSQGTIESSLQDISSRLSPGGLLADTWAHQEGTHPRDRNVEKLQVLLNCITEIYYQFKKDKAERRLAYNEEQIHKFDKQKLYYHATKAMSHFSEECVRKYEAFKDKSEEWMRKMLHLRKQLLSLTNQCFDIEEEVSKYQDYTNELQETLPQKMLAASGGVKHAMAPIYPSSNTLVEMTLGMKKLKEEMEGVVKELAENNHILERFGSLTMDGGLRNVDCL
Experiment: co-IP; endogenous proteins in bEnd.3 cells; RIPA lysate, primary antibody overnight at 4 °C, protein A/G agarose 4 h at 4 °C, RIPA wash, western blot

binding: binds
Substance: Endogenous CXCR4 (C-X-C chemokine receptor 4) (from UniProt P70658 1-359)
